Measurements reported in PubChem BioAssay AID493246 (Drosophila RNAi Screening Center, 2011)

Screen: 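Genome-wide search for dsRNAs that reduce cell number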 (primary screen)
System: Drosophila Kc and S2R+ cells
Reagent: long dsRNA against Drosophila genes
Detection: 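Cell number per well after knock-down, printed as raw plate values; calls were based on per-plate z-scores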
Reading the numbers: Kc cell number and S2R+ cell number: higher = more cells remaining
Hit rule: 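Active when the per-plate z-score of cell number is 3 or more in the direction of fewer cells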
The deposit covers about 21,000 reagents; this is a random part of those that have a named target and a result. Of all reagents, 429 (2%) are marked active. 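Values are raw and not normalised between plates; calls rest on per-plate z-scores that were not deposited.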 The numbers tell different reagents against one gene apart. A plus sign joins genes that one reagent is predicted to hit. Not given: the amount of reagent, the time to read-out.

| target gene | dsRNA no. | Kc cell number, rep 1 | Kc cell number, rep 2 | S2R+ cell number, rep 1 | S2R+ cell number, rep 2 | call |
| --- | --- | --- | --- | --- | --- | --- |
| mei-S332 (meiotic from via Salaria 332) | 1 | 1.35e6 | 1.35e6 | 9.69e5 | 9.96e5 | inactive |
| CG12239 | 1 | 4.45e5 | – | 7.97e5 | – | inactive |
| Takl2 (Tak1-like 2) | 1 | 1.48e6 | 1.47e6 | 9.89e5 | 1.06e6 | inactive |
| Smurf (SMAD specific E3 ubiquitin protein ligase) | 1 | 1.60e6 | 1.61e6 | 1.15e6 | 1.27e6 | inactive |
| Tsp96F (Tetraspanin 96F) | 1 | 5.41e5 | – | 7.52e5 | – | inactive |
| mira (miranda) | 1 | 1.46e6 | 1.62e6 | 1.12e6 | 1.17e6 | inactive |
| HP1D3csd (Heterochromatin Protein 1D3 chromoshadow domain) | 1 | 1.60e6 | 1.47e6 | 9.96e5 | 1.19e6 | inactive |
| CG32213 + CG12519 + 825-Oak + 1 more | 1 | 1.41e6 | 1.39e6 | 1.05e6 | 1.11e6 | inactive |
| CG3565 | 1 | 1.46e6 | 1.59e6 | 1.15e6 | 1.29e6 | inactive |
| CG11370 | 1 | 1.46e6 | 1.47e6 | 1.15e6 | 1.26e6 | inactive |
| CG5386 | 1 | 1.37e6 | 1.59e6 | 8.35e5 | 9.52e5 | inactive |
| Pph13 (PvuII-PstI homology 13) | 1 | 1.40e6 | 1.37e6 | 8.73e5 | 9.68e5 | inactive |
| CG9451 | 1 | 1.39e6 | 1.48e6 | 1.28e6 | 1.36e6 | inactive |
| Ate1 (Arginyltransferase 1) | 1 | 1.54e6 | 1.47e6 | 1.17e6 | 1.22e6 | inactive |
| Art2 (Arginine methyltransferase 2) | 1 | 1.57e6 | 1.64e6 | 1.13e6 | 1.31e6 | inactive |
| CG15186 | 1 | 1.55e6 | 1.76e6 | 1.20e6 | 1.30e6 | inactive |
| Nthl1 (Nth-like DNA glycosylase 1) | 1 | 1.49e6 | 1.67e6 | 1.32e6 | 3.88e5 | inactive |
| CG30222 | 1 | 1.78e6 | 1.92e6 | 1.45e6 | 3.90e5 | inactive |
| CG30222 | 2 | 1.73e6 | 1.79e6 | 1.24e6 | 2.58e5 | inactive |
| CG14820 | 1 | 1.29e6 | 1.22e6 | 1.22e6 | 1.22e6 | inactive |
| CG5928 | 1 | 1.34e6 | 1.34e6 | 1.04e6 | 1.16e6 | inactive |
| osp (outspread) | 1 | 1.51e6 | 1.57e6 | 9.11e5 | 1.12e6 | inactive |
| osp (outspread) | 2 | 1.18e6 | 1.27e6 | 1.24e6 | 1.21e6 | inactive |
| CG31659 | 1 | 1.56e6 | 1.57e6 | 1.08e6 | 1.22e6 | inactive |
| Bfc (Booster for Crq) | 1 | 1.22e6 | 1.30e6 | 1.01e6 | 1.21e6 | inactive |
| tst + CG10375 | 1 | 1.50e6 | 1.62e6 | 1.23e6 | 1.34e6 | inactive |
| CG33937 (retired record) | 1 | 1.84e6 | 1.88e6 | 1.33e6 | 1.51e6 | inactive |
| CG13385 | 1 | 1.67e6 | 1.69e6 | 1.24e6 | 1.45e6 | inactive |
| CG3108 | 1 | 5.86e5 | – | 9.14e5 | – | inactive |

Copied from the list:
Entry of mei-S332 (meiotic from via Salaria 332) under “Kc cell number, rep 2”: 1.35e6
mira (miranda), call: inactive
For “call”, CG12239 reads inactive
HP1D3csd (Heterochromatin Protein 1D3 chromoshadow domain), S2R+ cell number, rep 2: 1.19e6
Result of CG11370 under “S2R+ cell number, rep 2”: 1.26e6
CG5928, Kc cell number, rep 2: 1.34e6

The list goes on:
| target gene | dsRNA no. | Kc cell number, rep 1 | Kc cell number, rep 2 | S2R+ cell number, rep 1 | S2R+ cell number, rep 2 | call |
| --- | --- | --- | --- | --- | --- | --- |
| CG17329 | 1 | 1.61e6 | 1.65e6 | 1.32e6 | 1.56e6 | inactive |
| Nct (Nicastrin) | 1 | 1.58e6 | 1.58e6 | 1.35e6 | 1.36e6 | inactive |
| CG33160 | 1 | 1.46e6 | 1.27e6 | 8.88e5 | 1.09e6 | inactive |
| Ddc (Dopa decarboxylase) | 1 | 1.54e6 | 1.59e6 | 1.21e6 | 3.65e5 | inactive |
| nAChRalpha5 (nicotinic Acetylcholine Receptor alpha5) | 1 | 1.51e6 | 1.65e6 | 9.23e5 | 1.15e6 | inactive |
| nAChRalpha5 (nicotinic Acetylcholine Receptor alpha5) | 2 | 1.71e6 | 1.66e6 | 1.35e6 | 1.53e6 | inactive |
| nAChRalpha5 (nicotinic Acetylcholine Receptor alpha5) | 3 | 1.65e6 | 1.67e6 | 1.34e6 | 1.49e6 | inactive |
| CG6567 + CG4565 | 1 | 1.46e6 | 1.52e6 | 1.27e6 | 1.32e6 | inactive |
| eIF3f1 (eukaryotic translation initiation factor 3 subunit f1) | 1 | 1.31e6 | 1.38e6 | 9.49e5 | 1.07e6 | inactive |
| Ser7 | 1 | 5.70e5 | – | 8.79e5 | – | inactive |
| shep (alan shepard) | 1 | 1.33e6 | 1.34e6 | 6.37e5 | 7.73e5 | active |
| shep (alan shepard) | 2 | 1.47e6 | 1.52e6 | 1.16e6 | 1.21e6 | inactive |
| shep (alan shepard) | 3 | 1.51e6 | 1.45e6 | 1.35e6 | 1.33e6 | inactive |
| CG3306 | 1 | 1.34e6 | 1.43e6 | 1.30e6 | 1.24e6 | inactive |
| CG17930 | 1 | 1.49e6 | 1.62e6 | 1.13e6 | 1.21e6 | inactive |
| GNBP1 (Gram-negative bacteria binding protein 1) | 1 | 1.31e6 | 1.40e6 | 1.35e6 | 1.42e6 | inactive |
| PolG1 (DNA polymerase gamma subunit 1) | 1 | 1.69e6 | 1.83e6 | 1.24e6 | 1.42e6 | inactive |
| inc (insomniac) | 1 | 1.60e6 | 1.64e6 | 9.85e5 | 1.12e6 | inactive |
| inc (insomniac) | 2 | 5.23e5 | – | 8.39e5 | – | inactive |
| HSPBAP1 (HSPB1 associated protein 1) | 1 | 1.47e6 | 1.53e6 | 9.76e5 | 1.11e6 | inactive |
| Dip-C (Dipeptidase C) | 1 | 1.47e6 | 1.54e6 | 1.35e6 | 1.39e6 | inactive |
| CG17834 | 1 | 1.32e6 | 1.16e6 | 1.06e6 | 1.11e6 | inactive |
| CycT (Cyclin T) | 1 | 6.99e5 | 9.86e5 | 6.66e5 | 7.98e5 | active |
| CG5961 | 1 | 1.75e6 | 1.90e6 | 1.44e6 | 1.52e6 | inactive |
| CG9517 (retired record) | 1 | 1.48e6 | 1.49e6 | 1.07e6 | 1.14e6 | inactive |
| CG9517 (retired record) | 2 | 1.42e6 | 1.43e6 | 1.08e6 | 1.16e6 | inactive |
| rad50 | 1 | 1.23e6 | 1.29e6 | 1.07e6 | 1.14e6 | inactive |
| Su(var)2-10 (Suppressor of variegation 2-10) | 1 | 1.23e6 | 1.22e6 | 1.13e6 | 1.04e6 | inactive |
| CG5418 | 1 | 1.77e6 | 1.78e6 | 1.39e6 | 1.48e6 | inactive |
| Cdk2 (Cyclin-dependent kinase 2) | 1 | 1.42e6 | 1.54e6 | 6.22e5 | 7.28e5 | active |
